We go through one substance from US20080261923A1 (priority 2004, published 2008).

Series [1] can be described thus: general procedure: Fmoc solid-phase peptide synthesis; Rink amide MBHA resin; HBTU/HOBt; HATU/HOAt for the dipeptide isostere building block. The conditions noted are these: whole synthesis, scale 0.10 mmol.
The nature of series [2]: general procedure: Fmoc solid-phase peptide synthesis; Rink amide MBHA resin (0.64 mmol/g); HBTU/HOBt; HATU/HOAt for the dipeptide isostere building block. The conditions noted are these: whole synthesis.

In series [1], Ac-Phe-Tyr-pSerΨ[(Z)CH═C]-Pro-Arg-NH2 came in with a crude mass of 80 mg. The same substance yielded an isolated mass in series [2] of 20 mg. In series [2] (scale of the general procedure 0.10 mmol), this substance gave an isolated yield of 72%.
